Results are given in words; binding and its absence hold for the method and conditions named. In cells and extracts the contact can be indirect. Some results given as binding are weak or reduced against the parent protein; the word gives no strength. For part of these data: Where a sequence is shown, tags or fusion partners need not be part of it.
Legend:
GST-WW45 fusion protein = biological target: T1, GST-WW45 fusion protein (UniProt Q9H4B6); assay: pull-down; 5 ug GST-WW45 with 800 ug A549 whole cell lysate (50mM Tris-Cl pH7.5, 150mM NaCl, 0.1% NP40), 4°C for 3 hours; captured on glutathione-Sepharose-4B beads; only the target purified
T1 sequence: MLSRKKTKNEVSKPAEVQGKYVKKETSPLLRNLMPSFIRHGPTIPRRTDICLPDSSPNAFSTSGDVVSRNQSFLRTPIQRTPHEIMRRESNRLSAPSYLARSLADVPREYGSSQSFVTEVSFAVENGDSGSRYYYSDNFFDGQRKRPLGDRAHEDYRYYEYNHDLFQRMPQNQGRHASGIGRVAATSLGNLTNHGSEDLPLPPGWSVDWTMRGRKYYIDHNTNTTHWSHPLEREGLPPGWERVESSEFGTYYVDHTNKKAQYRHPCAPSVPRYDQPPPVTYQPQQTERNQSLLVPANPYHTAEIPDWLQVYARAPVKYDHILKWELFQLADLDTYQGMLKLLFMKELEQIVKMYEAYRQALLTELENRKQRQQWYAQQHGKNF

By UniProt entry, the sequences of proteins in these tests, tags left out.
UniProt P08151: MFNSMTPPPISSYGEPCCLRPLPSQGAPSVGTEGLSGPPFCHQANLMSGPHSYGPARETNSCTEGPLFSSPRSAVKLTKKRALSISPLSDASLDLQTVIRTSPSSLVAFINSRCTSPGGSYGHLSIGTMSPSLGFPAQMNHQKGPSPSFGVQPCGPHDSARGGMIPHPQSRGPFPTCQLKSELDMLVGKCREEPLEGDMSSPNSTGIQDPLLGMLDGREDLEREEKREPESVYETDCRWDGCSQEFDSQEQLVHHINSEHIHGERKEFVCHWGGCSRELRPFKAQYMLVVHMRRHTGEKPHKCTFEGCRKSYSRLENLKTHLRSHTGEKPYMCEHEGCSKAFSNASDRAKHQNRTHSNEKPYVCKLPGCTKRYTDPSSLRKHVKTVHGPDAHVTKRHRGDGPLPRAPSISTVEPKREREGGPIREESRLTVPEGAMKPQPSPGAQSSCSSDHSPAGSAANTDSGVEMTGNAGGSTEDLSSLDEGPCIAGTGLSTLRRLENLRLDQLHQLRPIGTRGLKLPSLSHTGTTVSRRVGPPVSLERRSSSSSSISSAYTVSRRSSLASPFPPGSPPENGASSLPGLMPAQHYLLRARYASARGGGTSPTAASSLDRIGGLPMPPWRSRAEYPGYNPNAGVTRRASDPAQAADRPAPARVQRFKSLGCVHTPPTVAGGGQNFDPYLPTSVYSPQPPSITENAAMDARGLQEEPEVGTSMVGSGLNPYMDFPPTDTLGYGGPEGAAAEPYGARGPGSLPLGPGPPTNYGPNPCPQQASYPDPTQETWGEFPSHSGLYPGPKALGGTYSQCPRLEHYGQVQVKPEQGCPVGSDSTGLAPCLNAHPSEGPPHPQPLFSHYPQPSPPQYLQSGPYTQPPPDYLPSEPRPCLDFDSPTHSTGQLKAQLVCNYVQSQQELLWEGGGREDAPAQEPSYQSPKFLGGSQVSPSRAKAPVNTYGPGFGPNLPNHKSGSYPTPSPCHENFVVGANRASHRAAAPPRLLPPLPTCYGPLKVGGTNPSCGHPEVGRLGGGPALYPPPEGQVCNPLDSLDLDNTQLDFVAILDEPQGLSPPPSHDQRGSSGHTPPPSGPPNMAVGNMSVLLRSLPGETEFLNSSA

[1] = biological target: HA-tagged Gli1 (expressed in A549 cells) (UniProt P08151); assay: co-IP; ectopically expressed Flag-WW45 and HA-Gli1 in A549 cells; which protein was precipitated is not told
[2] = biological target: Gli1 (endogenous, A549 cells) (human (endogenous in A549)) (UniProt P08151); assay: co-IP; endogenous WW45 and Gli1 in A549 cells; which protein was precipitated is not told

With “Gli1 (endogenous, A549 cells) (from UniProt P08151 1-1106)” the binding (GST-WW45 fusion protein) was “binds”.

B1: Flag tagged WW45 (protein, UniProt Q9H4B6 1-383)
chain: T1 sequence
In the case of B1, the binding [1] is reported as “binds”.

B2: WW45 (endogenous, A549 cells) (protein, UniProt Q9H4B6 1-383)
chain: T1 sequence
For B2, the binding [2] was “binds”.

Reference: publication PMC5356604
